PubChem BioAssay AID652054 (National Center for Advancing Translational Sciences (NCATS), 2013)
Among all 360,000 compounds or so, about 9,100 (2.5%) were called active. Inconclusive means that the source gave no clear call. Such entries were picked first, then a sample of the others. Cut-off read from the data, not from the text of the source: active = max response below about -50%; inconclusive = no clear call, values can overlap the other calls; inactive = above that.

Chains of the proteins cited; added tags and fusions are not shown.
UniProt P35462, whole entry, looked up: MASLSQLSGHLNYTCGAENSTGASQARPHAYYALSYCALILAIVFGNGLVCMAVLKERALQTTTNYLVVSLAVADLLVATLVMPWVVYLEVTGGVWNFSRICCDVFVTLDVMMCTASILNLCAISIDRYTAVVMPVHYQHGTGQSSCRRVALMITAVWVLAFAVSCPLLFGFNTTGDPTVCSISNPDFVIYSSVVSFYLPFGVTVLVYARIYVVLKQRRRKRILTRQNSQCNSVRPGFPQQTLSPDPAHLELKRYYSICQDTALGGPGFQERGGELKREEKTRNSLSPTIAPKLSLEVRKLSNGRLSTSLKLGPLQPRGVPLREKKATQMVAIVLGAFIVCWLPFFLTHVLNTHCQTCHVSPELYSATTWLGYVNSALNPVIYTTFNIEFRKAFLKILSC

Each molecule was assayed against D(3) dopamine receptor (Homo sapiens) (UniProt P35462) (assay: qHTS of D3 Dopamine Receptor Antagonist: qHTS). Conditions: D3R cells, DiscoveRx beta-arrestin luminescence, antagonist mode; active compounds read low.
Procedure, shortened: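 Cells expressing the human receptor were seeded at 1500 cells/well, incubated overnight at 37 degrees C in 5% CO2, then exposed to library compounds with dopamine controls for 90 minutes at 37 degrees C before luminescent detection.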
% is set by controls: 0 for no effect and ±100 for the full control effect.

Max response, negative = inhibition, inactive:
C=CCn1c(NCc2cc(Cl)ccc2O)nc2ccccc21 5.61%
CC1=C(C(=O)N(C(C)C)C(C)C)CC(CC(=O)NC(c2ccccc2)c2ccccc2)C(=O)N1Cc1ccc(C(C)(C)C)cc1 (centres undefined) -20.7%
CCn1cc(/C=C/c2cc[n+](C)cc2)c2ccccc21 -2.71%
CC1CCCCN1S(=O)(=O)c1ccc(C(=O)Nc2nnc(-c3ccco3)o2)cc1 (centres undefined) -8.78%
CC(C)=CCn1c2ccc(NC(=O)Nc3cccnc3)cc2c(=O)n1C 16.3%
CS(=O)(=O)N1CCCC(c2nc(-c3ccc(S(=O)(=O)NCc4ccccc4)cc3)no2)C1 (centres undefined) -15.8%
CC(=O)c1cccc(CN2CCC(CO)(CCOc3ccccc3)CC2)c1 -13.7%
COc1ccc(CN2CN=C(Nc3nc4ccccc4s3)NC2)cc1 9.1%
CCC1COCCS(=O)(=O)N1Cc1ccccc1C (centres undefined) 0.932%
Cc1ccc(C)c(C(C)NC(=S)NC2CCCCC2)c1 (centres undefined) 5.83%
O=C(Cn1c(CO)nc2ccccc21)Nc1ccc2c(c1)OCCCO2 -16%
Cc1cccc(OCC(=O)Nc2cc(Cl)ccc2-n2cncn2)c1C -1.55%

Max response, negative = inhibition, inconclusive:
COc1ccc(N2CCN(CCCNC(=O)CCC(=O)N3CCOc4ccc(Cl)cc43)CC2)cc1 -31.4%
CN(/N=C/c1cc(Cl)cc(Cl)c1O)c1c(Cl)cccc1[N+](=O)[O-] -42.5%
COCCNC(=O)CN(c1cc(Cl)ccc1OC)S(C)(=O)=O -38.4%
COc1ccc(CC(N)c2csc(NC(=O)Nc3ccccc3Cc3ccccc3)n2)cc1 (centres undefined) -39.8%
Clc1ccc(C[n+]2cc(-c3ccccc3)n3c2CCC3)cc1Cl -42.6%
CC(C)(C)S(=O)N1Cc2cc(C(=O)N3CCc4ccccc4C3)nc(-c3cccc(-c4cccnc4)c3)c2[C@@H]1CCO (some centres undefined) -32.3%
CCOc1cc(CNC2CCCC2)ccc1OCc1ccccc1Cl -38.6%
CC(CCc1ccccc1)N1CCN(C)CC1 (centres undefined) -42.9%
CCOc1c(Br)cc(Br)cc1/C=C1\SC(N)=NC1=O -42.3%
CC(C)(C)c1ccc(C(=O)NCC(=O)OCC(=O)NC(=O)NC2CCCC2)cc1 -31.3%
O=C(c1cccs1)N1CCN(Cc2ccccc2[N+](=O)[O-])CC1 -32.8%
COC(=O)c1cc(O)cc(OC)c1Oc1cc(C)cc(O)c1C(=O)O -35.4%
CC(=O)C1=C(O)C(=O)N(C)C1c1ccccc1[N+](=O)[O-] (centres undefined) -35.4%
O=C(Nc1ccc(Cl)c(Cl)c1)N(CCCN1CCOCC1)Cc1cccs1 -39.2%
O=C(NNC(=S)Nc1ccccc1)C1CCCCC1 -38.5%
Cc1nc2ccc(NC(=O)c3sccc3C)cc2s1 -30.3%
CCCNC(=O)c1ccc2c(=O)n3c(-c4ccc(C)cc4)csc3nc2c1 -33.2%
N#Cc1nc(COc2ccc(Br)cc2)oc1N1CCCC1 -43.4%
NS(=O)(=O)c1ccc(-c2c(-c3ccccc3)sc3ccccc23)cc1 -31.3%
COC(=O)[C@]12CCCCC=C1N(Cc1ccco1)C(=O)[C@H](CC(=O)N1CCN(C(=O)C3CC3)CC1)C2 -32%
CC(C)(C)OC(=O)C[C@H]1C/C=C\C[C@H](CC(=O)N(CCO)Cc2ccccc2)C(=O)N[C@@H](Cc2ccccc2)COC1=O -35%
Cc1cc(F)ccc1-c1cc(C(=O)NCc2ccc(C(F)(F)F)cc2)[nH]n1 -42%
CCOC(=O)C(NC(C)=O)(N1CCc2ccccc2C1)C(F)(F)F (centres undefined) -30.1%

Random excerpt: 2 records from the list, in no set order.
Max response, negative = inhibition, inconclusive:
CC(=O)C1=C(O)C(=O)N(C)C1c1ccccc1[N+](=O)[O-] (centres undefined) -35.4%
CN(/N=C/c1cc(Cl)cc(Cl)c1O)c1c(Cl)cccc1[N+](=O)[O-] -42.5%

Following part:

Max response, negative = inhibition, active:
COc1ccc(CCNC(=O)c2cc3sccc3n2C)cc1OC -72%
COC(=O)c1[nH]c2cc(OC)ccc2c1NC(=O)CCN1CCCC(C)(C)C1 -56.1%
COc1ccccc1-c1cc(C(F)(F)F)nc(S(=O)(=O)CCCC(=O)NC(C)C)n1 -67.4%
CCC(=O)OCCNc1cc(Sc2nc3ccccc3[nH]2)c2nonc2c1[N+](=O)[O-] -116%
O=C(OCCN1CCCCC1)c1ccc(Cl)cc1 -78.2%
O=[N+]([O-])c1ccc(Sc2cccc3cccnc23)c([N+](=O)[O-])c1 -54.6%
C/C=C(\C)CN1CCN(c2ccccc2)CC1 -71.2%
CCOC(=O)N1CCN(c2cc(NCCC(=O)O)c3c4c(onc24)-c2ccccc2C3=O)CC1 -76.8%
CCN1CCc2c(sc(NC(=O)Cc3ccccc3)c2C(=O)OC)C1 -103%
